# Numbering of substitutions follows the chain as printed. Names and notes keep the numbering of the source. No constants are given. Whether binding was seen depends on the method and setting. In cells and extracts the contact can be indirect. Some binding calls cover weakened binding; strength is not graded here. Sequences can lack the tags named with a protein.
# T1: FLAG-fused FKBP11 (FKBP11-FLAG) (UniProt Q9D1M7)
# T1 sequence: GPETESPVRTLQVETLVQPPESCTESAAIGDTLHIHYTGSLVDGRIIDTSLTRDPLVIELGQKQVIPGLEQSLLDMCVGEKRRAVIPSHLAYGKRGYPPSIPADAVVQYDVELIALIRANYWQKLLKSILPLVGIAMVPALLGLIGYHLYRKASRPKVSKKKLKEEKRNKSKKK
# B1: wild-type IFITM5 (IFITM5-WT), S-palmitoylated form (protein, UniProt O88728 1-134)
# chain: MDTSYPREDPRAPSSRKADAAAHTALSMGTPGPTPRDHMLWSVFSTMYLNLCCLGFLALVHSVKARDQKMAGNLEAARQYGSKAKCYNILAAMWTLVPPLLLLGLVVTGALHLSKLAKDSAAFFSTKFDEEDYN
# modifications: S-palmitoylated at Cys86 plus Cys52 and/or Cys53 (fully palmitoylated)
# B2: IFITM5-C86A (protein, UniProt O88728 1-134)
# chain: B1 chain with C86A
# modifications: partially palmitoylated at Cys52 and/or Cys53
# B3: IFITM5-C52A/C53A (protein, UniProt O88728 1-134)
# chain: B1 chain with C52A, C53A
# modifications: partially palmitoylated at Cys86
# B4: IFITM5-C52A/C53A/C86A (Cys-less) (protein, UniProt O88728 1-134)
# chain: B1 chain with C52A, C53A, C86A
# Biological target: T1, FLAG-fused FKBP11 (FKBP11-FLAG)
# Assay: co-IP; lysate of MC3T3 osteoblast cells co-expressing IFITM5 and FKBP11-FLAG, grown without 2BP; anti-FLAG M2 agarose, 4 C, 2 h; eluted with 3xFLAG peptide; blot with anti-IFITM5 and anti-FLAG
row,binding,Binder
1,binds,B1
2,binds,B2
3,no binding,B3
4,no binding,B4
